Measurements reported in PubChem BioAssay AID652272 (Drosophila RNAi Screening Center, 2013)
Test: 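Genome-wide knock-down search for components of Hedgehog signalling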 (primary screen). Cells: Drosophila clone 8 (Cl8) cells. Reagent: long dsRNA against Drosophila genes. Measurement: 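Firefly light from a Hedgehog-responsive ptc promoter reporter and Renilla reference light, both read on a plate reader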. Reading the numbers: firefly Hh reporter signal: higher = more ptc reporter light; Renilla reference signal: higher = more Renilla control light. Active means: 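Called a hit if the two-replicate mean z-score lies below -2 or above +3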. Calls: active = hit: reporter lowered or raised; inactive = not a hit.
The deposit covers about 21,000 reagents; this is an unselected part of those that have a named target and a result. In the full data, 503 (2.4%) are marked active. 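Raw plate light values, not normalised; calls rest on replicate z-scores that were not deposited; hits include reporter decreases as well as increases.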 Names joined by + are all predicted targets of the reagent. Not given: the amount of reagent, the time to read-out.

How did the screen score NPFR [DRSC12173]?
firefly Hh reporter signal, replicate 1: 82827; firefly Hh reporter signal, replicate 2: 1.24e5; Renilla reference signal, replicate 1: 4038; Renilla reference signal, replicate 2: 3104; Call: inactive

What did the screen give for CG9578 [DRSC20694]?
firefly Hh reporter signal, replicate 1: 1.89e5; firefly Hh reporter signal, replicate 2: 1.35e5; Renilla reference signal, replicate 1: 4000; Renilla reference signal, replicate 2: 2944; Call: inactive

How did the screen score mus81 [DRSC18180]?
firefly Hh reporter signal, replicate 1: 1.25e5; firefly Hh reporter signal, replicate 2: 2.71e5; Renilla reference signal, replicate 1: 4797; Renilla reference signal, replicate 2: 9816; Call: inactive

What did the screen give for mus81 [DRSC18644]?
firefly Hh reporter signal, replicate 1: 1.17e5; firefly Hh reporter signal, replicate 2: 3.17e5; Renilla reference signal, replicate 1: 4513; Renilla reference signal, replicate 2: 11459; Call: inactive

For Lim3 [DRSC02475], how do the results read?
firefly Hh reporter signal, replicate 1: 1.23e5; firefly Hh reporter signal, replicate 2: 84258; Renilla reference signal, replicate 1: 3409; Renilla reference signal, replicate 2: 7716; Call: inactive

For Lim3 [DRSC03363], how do the results read?
firefly Hh reporter signal, replicate 1: 35420; firefly Hh reporter signal, replicate 2: 22180; Renilla reference signal, replicate 1: 1004; Renilla reference signal, replicate 2: 2792; Call: inactive

For Edem2 [DRSC02877], what does the deposit list?
firefly Hh reporter signal, replicate 1: 2.16e5; firefly Hh reporter signal, replicate 2: 88336; Renilla reference signal, replicate 1: 5657; Renilla reference signal, replicate 2: 7121; Call: inactive

How did the screen score nSyb [DRSC08727]?
firefly Hh reporter signal, replicate 1: 1.40e5; firefly Hh reporter signal, replicate 2: 93770; Renilla reference signal, replicate 1: 6153; Renilla reference signal, replicate 2: 3600; Call: inactive

For Rnp4F [DRSC18706], what does the deposit list?
firefly Hh reporter signal, replicate 1: 70231; firefly Hh reporter signal, replicate 2: 69270; Renilla reference signal, replicate 1: 1734; Renilla reference signal, replicate 2: 1756; Call: inactive

Which result is listed for Faa [DRSC08451]?
firefly Hh reporter signal, replicate 1: 1.04e5; firefly Hh reporter signal, replicate 2: 67789; Renilla reference signal, replicate 1: 4550; Renilla reference signal, replicate 2: 2953; Call: inactive

Which result is listed for CG15169 [DRSC02470]?
firefly Hh reporter signal, replicate 1: 72162; firefly Hh reporter signal, replicate 2: 42715; Renilla reference signal, replicate 1: 2100; Renilla reference signal, replicate 2: 4409; Call: inactive

With CG3502 + CG9863 [DRSC04578], what was measured?
firefly Hh reporter signal, replicate 1: 71189; firefly Hh reporter signal, replicate 2: 42880; Renilla reference signal, replicate 1: 1462; Renilla reference signal, replicate 2: 4448; Call: inactive

For CG6583 [DRSC02972], what does the deposit list?
firefly Hh reporter signal, replicate 1: 1.03e5; firefly Hh reporter signal, replicate 2: 48662; Renilla reference signal, replicate 1: 2969; Renilla reference signal, replicate 2: 5232; Call: inactive

How did the screen score mbm [DRSC00319]?
firefly Hh reporter signal, replicate 1: 1.07e5; firefly Hh reporter signal, replicate 2: 90152; Renilla reference signal, replicate 1: 4402; Renilla reference signal, replicate 2: 3571; Call: inactive

With TyrRS [DRSC10430], how do the results read?
firefly Hh reporter signal, replicate 1: 1.02e5; firefly Hh reporter signal, replicate 2: 57632; Renilla reference signal, replicate 1: 3992; Renilla reference signal, replicate 2: 2549; Call: inactive

For CG11698 [DRSC14355], how do the results read?
firefly Hh reporter signal, replicate 1: 6.51e5; firefly Hh reporter signal, replicate 2: 1.20e5; Renilla reference signal, replicate 1: 4268; Renilla reference signal, replicate 2: 4268; Call: inactive

For CG5131 [DRSC02817], how do the results read?
firefly Hh reporter signal, replicate 1: 1.30e5; firefly Hh reporter signal, replicate 2: 73843; Renilla reference signal, replicate 1: 3328; Renilla reference signal, replicate 2: 6626; Call: inactive

How did the screen score CG42561 [DRSC05676]?
firefly Hh reporter signal, replicate 1: 95933; firefly Hh reporter signal, replicate 2: 2.21e5; Renilla reference signal, replicate 1: 3180; Renilla reference signal, replicate 2: 8022; Call: inactive

What is on record for Prosbeta4 [DRSC02603]?
firefly Hh reporter signal, replicate 1: 44180; firefly Hh reporter signal, replicate 2: 35084; Renilla reference signal, replicate 1: 1888; Renilla reference signal, replicate 2: 4124; Call: active

What did the screen give for CG8924 [DRSC20122]?
firefly Hh reporter signal, replicate 1: 65933; firefly Hh reporter signal, replicate 2: 70905; Renilla reference signal, replicate 1: 1648; Renilla reference signal, replicate 2: 1899; Call: inactive

What did the screen give for CG10467 [DRSC09728]?
firefly Hh reporter signal, replicate 1: 52694; firefly Hh reporter signal, replicate 2: 44880; Renilla reference signal, replicate 1: 4945; Renilla reference signal, replicate 2: 3362; Call: inactive

With RabX5 [DRSC08608], what does the deposit list?
firefly Hh reporter signal, replicate 1: 76581; firefly Hh reporter signal, replicate 2: 38373; Renilla reference signal, replicate 1: 2432; Renilla reference signal, replicate 2: 3001; Call: inactive

For Set1 [DRSC20930], how do the results read?
firefly Hh reporter signal, replicate 1: 1.05e5; firefly Hh reporter signal, replicate 2: 1.54e5; Renilla reference signal, replicate 1: 3255; Renilla reference signal, replicate 2: 5813; Call: inactive

For Set1 [DRSC20931], how do the results read?
firefly Hh reporter signal, replicate 1: 1.00e5; firefly Hh reporter signal, replicate 2: 1.67e5; Renilla reference signal, replicate 1: 2853; Renilla reference signal, replicate 2: 6308; Call: inactive

For CG4049 [DRSC04443], what was measured?
firefly Hh reporter signal, replicate 1: 82838; firefly Hh reporter signal, replicate 2: 56139; Renilla reference signal, replicate 1: 2226; Renilla reference signal, replicate 2: 5648; Call: inactive

With CG9286 [DRSC16467], what does the deposit list?
firefly Hh reporter signal, replicate 1: 70422; firefly Hh reporter signal, replicate 2: 66380; Renilla reference signal, replicate 1: 3760; Renilla reference signal, replicate 2: 3204; Call: inactive

How did the screen score Hsp27 [DRSC11190]?
firefly Hh reporter signal, replicate 1: 1.53e5; firefly Hh reporter signal, replicate 2: 65844; Renilla reference signal, replicate 1: 6268; Renilla reference signal, replicate 2: 2860; Call: inactive

A portion taken from the entries so far, as a working copy:
mus81 [DRSC18180] | firefly Hh reporter signal, replicate 1: 1.25e5; firefly Hh reporter signal, replicate 2: 2.71e5; Renilla reference signal, replicate 1: 4797; Renilla reference signal, replicate 2: 9816; Call: inactive
mus81 [DRSC18644] | firefly Hh reporter signal, replicate 1: 1.17e5; firefly Hh reporter signal, replicate 2: 3.17e5; Renilla reference signal, replicate 1: 4513; Renilla reference signal, replicate 2: 11459; Call: inactive
Lim3 [DRSC02475] | firefly Hh reporter signal, replicate 1: 1.23e5; firefly Hh reporter signal, replicate 2: 84258; Renilla reference signal, replicate 1: 3409; Renilla reference signal, replicate 2: 7716; Call: inactive
